Data published in publication doi:10.1101/197558.
These are yes or no findings as the source states them, for the method shown.

Target: KATNAL1 (E308Q) AAA ATPase domain, nucleotide-free, as found in the crystal (human) (UniProt Q9BW62)
Experiment: crystal structure

binding: no binding
B1: KATNAL1 (E308Q) AAA ATPase domain, nucleotide-free, as found in the crystal (domain or fragment, UniProt Q9BW62 184-490)
chain: AGYDKDLVEALERDIVSRNPSIHWDDIADLEEAKKLLREAVVLPMWMPDFFKGIRRPWKGVLMVGPPGTGKTMLAKAVATECGTTFFNVSSSTLTSKYRGESEKLVRLLFEMARFYAPTTIFIDQIDSICSRRGTSDEHEASRRVKSELLIQMDGVGGALENDDPSKMVMVLAATNFPWDIDEALRRRLEKRIYIPLPTAKGRAELLKINLREVELDPDIQLEDIAEKIEGYSGADITNVCRDASLMAMRRRINGLSPEEIRALSKEELQMPVTKGDFELALKKIAKSVSAADLEKYEKWMVEFGSA
